Measured values from patent US20210188940A1 (BIOAGE LABS, published 2021).
No constants are given. Whether binding was seen depends on the method and setting. Some binding calls cover weakened binding; strength is not graded here.

Chains of the proteins cited; added tags and fusions are not shown. Residues count along the entry.
UniProt P02768, residues 25-609: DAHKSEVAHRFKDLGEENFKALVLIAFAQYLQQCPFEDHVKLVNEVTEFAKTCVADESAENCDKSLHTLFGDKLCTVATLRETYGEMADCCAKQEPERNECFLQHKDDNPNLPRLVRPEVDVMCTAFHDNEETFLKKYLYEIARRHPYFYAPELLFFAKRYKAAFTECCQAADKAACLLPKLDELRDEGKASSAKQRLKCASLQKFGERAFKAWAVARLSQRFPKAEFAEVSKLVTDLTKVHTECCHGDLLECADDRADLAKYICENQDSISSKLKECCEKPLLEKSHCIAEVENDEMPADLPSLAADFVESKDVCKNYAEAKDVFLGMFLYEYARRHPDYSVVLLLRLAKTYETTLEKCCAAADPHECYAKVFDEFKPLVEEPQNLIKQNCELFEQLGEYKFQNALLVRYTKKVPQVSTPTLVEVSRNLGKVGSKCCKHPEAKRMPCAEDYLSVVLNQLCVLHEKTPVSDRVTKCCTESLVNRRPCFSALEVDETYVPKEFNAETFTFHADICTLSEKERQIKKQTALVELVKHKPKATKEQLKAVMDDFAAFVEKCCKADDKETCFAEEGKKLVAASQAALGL
UniProt P09429: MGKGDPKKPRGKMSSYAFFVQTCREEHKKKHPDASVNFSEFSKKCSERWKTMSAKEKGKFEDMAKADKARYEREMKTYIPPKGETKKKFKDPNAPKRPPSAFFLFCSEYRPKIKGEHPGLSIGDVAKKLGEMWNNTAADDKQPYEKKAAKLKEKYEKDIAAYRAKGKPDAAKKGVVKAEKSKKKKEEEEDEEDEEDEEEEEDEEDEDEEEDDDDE

T1: S100A9 (UniProt P06702 1-114, limits assumed)
T1 sequence (looked up): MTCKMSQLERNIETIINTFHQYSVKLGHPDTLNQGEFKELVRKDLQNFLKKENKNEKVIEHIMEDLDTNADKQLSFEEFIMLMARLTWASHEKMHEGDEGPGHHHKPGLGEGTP

T2: S100A12 (UniProt P80511 1-92, limits assumed)
T2 sequence (looked up): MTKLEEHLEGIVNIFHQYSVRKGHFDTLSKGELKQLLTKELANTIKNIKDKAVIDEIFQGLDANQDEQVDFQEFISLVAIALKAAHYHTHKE

T3: S100A9 (UniProt P06702)
T3 sequence (looked up): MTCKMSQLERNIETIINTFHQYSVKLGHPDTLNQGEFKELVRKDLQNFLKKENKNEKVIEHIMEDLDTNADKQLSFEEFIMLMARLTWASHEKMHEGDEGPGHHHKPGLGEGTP


Key:
Experiment in all cases: ELISA, ligand coated on plate
[1] = target: CML-HSA (carboxymethylated human serum albumin) (human) (UniProt P02768)
HMGB1 (amphoterin) = HMGB1 (amphoterin) (UniProt P09429)
S100A9 [2] = target: T1, S100A9
S100A12 = target: T2, S100A12
S100A9 [3] = target: T3, S100A9

binding [1]	binding (HMGB1 (amphoterin))	binding (S100A9 [2])	binding (S100A12)	binding (S100A9 [3])	Binder
binds	binds	binds	binds		Construct #12: RAGE V-C1-C2-V1stem(M/A)-IgG2 lower hinge-(IgG4CH2-CH3) (Fc fusion, also called esRAGE-Fc fusion) AQNITARIGEPLVLKCKGAPKKPPQRLEWKLNTGRTEAWKVLSPQGGGPWDSVARVLPNGSLFLPAVGIQDEGIFRCQAMNRNGKETKSNYRVRVYQIPGKPEIVDSASELTAGVPNKVGTCVSEGSYPAGTLSWHLDGKPLVPNEKGVSVKEQTRRHPETGLFTLQSELMVTPARGGDPRPTFSCSFSPGLPRHRALRTAPIQPRVWEPVPLEEVQLVVEPEGGAVAPGGTVTLTCEVPAQPSPQIHWMKDGVPLPLPPSPVLILPEIGPQDQGTYSCVATHSSHGPQESRAVSISIIEPGEEGPTAGEGFDKVREAEDSPQHAVECPPCAPPVAGGPSVFLFPPKPKDTLMISRTPEVTCVVVDVSQEDPEVQFNWYVDGVEVHNAKTKPREEQFNSTYRVVSVLTVLHQDWLNGKEYKCKVSNKGLPSSIEKTISKAKGQPREPQVYTLPPSQEEMTKNQVSLTCLVKGFYPSDIAVEWESNGQPENNYKTTPPVLDSDGSFFLYSRLTVDKSRWQEGNVFSCSVMHEALHNHYTQKSLSLSLGK
binds	binds		binds	binds	Construct #16: RAGE V-C1-C2-V1stem(M/A)-IgG2 lower hinge-(IgG4CH2-CH3)-YTE (Fc fusion, also called #12 + YTE; esRAGE-Fc fusion) AQNITARIGEPLVLKCKGAPKKPPQRLEWKLNTGRTEAWKVLSPQGGGPWDSVARVLPNGSLFLPAVGIQDEGIFRCQAMNRNGKETKSNYRVRVYQIPGKPEIVDSASELTAGVPNKVGTCVSEGSYPAGTLSWHLDGKPLVPNEKGVSVKEQTRRHPETGLFTLQSELMVTPARGGDPRPTFSCSFSPGLPRHRALRTAPIQPRVWEPVPLEEVQLVVEPEGGAVAPGGTVTLTCEVPAQPSPQIHWMKDGVPLPLPPSPVLILPEIGPQDQGTYSCVATHSSHGPQESRAVSISIIEPGEEGPTAGEGFDKVREAEDSPQHAVECPPCAPPVAGGPSVFLFPPKPKDTLYITREPEVTCVVVDVSQEDPEVQFNWYVDGVEVHNAKTKPREEQFNSTYRVVSVLTVLHQDWLNGKEYKCKVSNKGLPSSIEKTISKAKGQPREPQVYTLPPSQEEMTKNQVSLTCLVKGFYPSDIAVEWESNGQPENNYKTTPPVLDSDGSFFLYSRLTVDKSRWQEGNVFSCSVMHEALHNHYTQKSLSLSLGK
